According to article PMC5833852:
No constants are given. Whether binding was seen depends on the method and setting. In cells and extracts the contact can be indirect. Some results given as binding are weak or reduced against the parent protein; the word gives no strength.

Chains of the proteins cited; added tags and fusions are not shown.
UniProt Q6NZM9: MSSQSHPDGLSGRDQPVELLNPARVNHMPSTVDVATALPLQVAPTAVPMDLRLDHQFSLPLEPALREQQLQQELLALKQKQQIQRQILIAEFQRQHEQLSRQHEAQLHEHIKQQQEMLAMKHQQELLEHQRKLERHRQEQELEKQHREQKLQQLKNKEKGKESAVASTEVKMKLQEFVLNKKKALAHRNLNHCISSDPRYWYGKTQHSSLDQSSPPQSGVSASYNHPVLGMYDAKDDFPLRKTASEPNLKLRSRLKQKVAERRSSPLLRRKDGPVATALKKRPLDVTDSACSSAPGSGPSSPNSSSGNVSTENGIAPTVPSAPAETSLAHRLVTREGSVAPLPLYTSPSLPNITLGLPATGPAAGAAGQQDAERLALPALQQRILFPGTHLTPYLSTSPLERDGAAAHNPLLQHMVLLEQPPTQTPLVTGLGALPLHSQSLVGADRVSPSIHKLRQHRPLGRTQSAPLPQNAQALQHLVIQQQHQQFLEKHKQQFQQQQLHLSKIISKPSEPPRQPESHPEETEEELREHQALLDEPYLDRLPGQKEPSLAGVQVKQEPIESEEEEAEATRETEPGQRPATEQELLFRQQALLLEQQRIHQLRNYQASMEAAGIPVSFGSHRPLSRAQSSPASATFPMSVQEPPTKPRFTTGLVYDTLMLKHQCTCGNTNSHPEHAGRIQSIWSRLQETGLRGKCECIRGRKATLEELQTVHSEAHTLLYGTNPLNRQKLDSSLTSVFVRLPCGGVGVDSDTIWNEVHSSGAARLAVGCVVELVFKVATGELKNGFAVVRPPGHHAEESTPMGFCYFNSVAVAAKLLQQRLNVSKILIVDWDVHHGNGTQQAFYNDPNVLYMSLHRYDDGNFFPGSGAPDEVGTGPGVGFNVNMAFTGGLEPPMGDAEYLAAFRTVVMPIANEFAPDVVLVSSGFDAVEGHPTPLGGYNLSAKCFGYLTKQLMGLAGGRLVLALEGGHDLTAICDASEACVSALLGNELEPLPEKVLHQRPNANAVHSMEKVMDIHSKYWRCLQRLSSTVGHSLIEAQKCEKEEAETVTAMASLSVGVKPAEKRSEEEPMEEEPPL

Molecular target: FLAG-Hdac4 (UniProt Q6NZM9)
Test: co-IP; HEK293T cells cotransfected with Nanog and FLAG-Hdac4; lysed in modified RIPA buffer; anti-FLAG agarose beads overnight at 4 °C, normal IgG as negative control; blot with anti-Nanog and anti-FLAG

B1: Nanog (protein, UniProt Q80Z64 1-305)
chain: MSVGLPGPHSLPSSEEASNSGNASSMPAVFHPENYSCLQGSATEMLCTEAASPRPSSEDLPLQGSPDSSTSPKQKLSSPEADKGPEEEENKVLARKQKMRTVFSQAQLCALKDRFQKQKYLSLQQMQELSSILNLSYKQVKTWFQNQRMKCKRWQKNQWLKTSNGLIQKGSAPVEYPSIHCSYPQGYLVNASGSLSMWGSQTWTNPTWSSQTWTNPTWNNQTWTNPTWSSQAWTAQSWNGQPWNAAPLHNFGEDFLQPYVQLQQNFSASDLEVNLEATRESHAHFSTPQALELFLNYSVTPPGEI
Which binding does the source give for B1 here?
The binding was “binds”.
